The target in this assay is T1, wild-type human α4 integrin, full length (human) (UniProt P13612).
T1 sequence (chain, biotin (cell surface molecules labelled with NHS-LC-Biotin)): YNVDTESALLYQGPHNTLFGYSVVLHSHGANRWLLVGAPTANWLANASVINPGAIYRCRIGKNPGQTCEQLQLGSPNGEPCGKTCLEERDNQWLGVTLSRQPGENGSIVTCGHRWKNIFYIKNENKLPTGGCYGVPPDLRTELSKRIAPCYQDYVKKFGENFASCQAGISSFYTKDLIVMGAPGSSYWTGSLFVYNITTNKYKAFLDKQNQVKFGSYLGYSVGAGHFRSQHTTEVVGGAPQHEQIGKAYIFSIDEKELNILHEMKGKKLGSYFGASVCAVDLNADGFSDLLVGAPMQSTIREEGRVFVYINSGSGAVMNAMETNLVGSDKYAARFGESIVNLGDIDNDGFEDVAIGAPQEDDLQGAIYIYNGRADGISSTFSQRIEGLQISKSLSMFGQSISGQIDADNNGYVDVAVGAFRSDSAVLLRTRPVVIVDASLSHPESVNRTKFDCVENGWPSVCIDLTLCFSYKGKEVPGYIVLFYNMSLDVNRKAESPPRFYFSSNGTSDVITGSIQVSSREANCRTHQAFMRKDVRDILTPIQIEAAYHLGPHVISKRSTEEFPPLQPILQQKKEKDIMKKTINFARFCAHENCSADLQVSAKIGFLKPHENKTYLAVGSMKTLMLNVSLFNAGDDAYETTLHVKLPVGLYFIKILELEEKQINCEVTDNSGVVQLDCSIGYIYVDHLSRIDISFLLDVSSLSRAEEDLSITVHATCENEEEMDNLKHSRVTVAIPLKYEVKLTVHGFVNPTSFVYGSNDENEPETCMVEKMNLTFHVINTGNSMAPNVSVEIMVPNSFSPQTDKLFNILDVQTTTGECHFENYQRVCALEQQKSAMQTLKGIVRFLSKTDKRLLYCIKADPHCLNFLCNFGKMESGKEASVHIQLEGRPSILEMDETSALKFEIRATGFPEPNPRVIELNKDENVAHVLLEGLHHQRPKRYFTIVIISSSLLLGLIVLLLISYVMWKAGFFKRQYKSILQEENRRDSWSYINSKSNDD
The experiment in a line: co-IP; lysates of biotin-labelled PC12 cells co-expressing wild-type α4 and FLAG-paxillin constructs; immunoprecipitated with anti-α4, re-immunoprecipitated with anti-FLAG, western blot with anti-paxillin antibody. (In general: In western blotting, separated proteins are transferred to a membrane and probed.)

Amino acid sequences for entries named in this document (tags omitted). A change or cut given only in a name is not applied to a line headed by its entry. Chains listed by the source or under a name are the forms on record and can include a tag or linker.
UniProt P49024: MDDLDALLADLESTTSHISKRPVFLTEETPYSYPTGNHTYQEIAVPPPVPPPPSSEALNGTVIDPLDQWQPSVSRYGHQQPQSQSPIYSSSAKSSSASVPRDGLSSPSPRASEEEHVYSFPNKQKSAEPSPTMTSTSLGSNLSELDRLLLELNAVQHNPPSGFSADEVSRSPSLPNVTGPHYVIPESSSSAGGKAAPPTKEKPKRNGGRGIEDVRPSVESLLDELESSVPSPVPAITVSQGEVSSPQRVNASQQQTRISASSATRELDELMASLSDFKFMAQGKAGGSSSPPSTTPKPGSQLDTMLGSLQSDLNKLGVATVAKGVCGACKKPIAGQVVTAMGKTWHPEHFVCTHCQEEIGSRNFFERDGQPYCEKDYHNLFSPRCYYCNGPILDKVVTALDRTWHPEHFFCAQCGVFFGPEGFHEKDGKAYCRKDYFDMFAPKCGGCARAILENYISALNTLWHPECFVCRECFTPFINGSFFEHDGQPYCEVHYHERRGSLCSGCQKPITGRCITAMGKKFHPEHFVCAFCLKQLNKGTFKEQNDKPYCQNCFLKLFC
FLAG-tagged chicken paxillin with three Y to F substitutions at Y31, Y118 and Y182 (P49024, form named): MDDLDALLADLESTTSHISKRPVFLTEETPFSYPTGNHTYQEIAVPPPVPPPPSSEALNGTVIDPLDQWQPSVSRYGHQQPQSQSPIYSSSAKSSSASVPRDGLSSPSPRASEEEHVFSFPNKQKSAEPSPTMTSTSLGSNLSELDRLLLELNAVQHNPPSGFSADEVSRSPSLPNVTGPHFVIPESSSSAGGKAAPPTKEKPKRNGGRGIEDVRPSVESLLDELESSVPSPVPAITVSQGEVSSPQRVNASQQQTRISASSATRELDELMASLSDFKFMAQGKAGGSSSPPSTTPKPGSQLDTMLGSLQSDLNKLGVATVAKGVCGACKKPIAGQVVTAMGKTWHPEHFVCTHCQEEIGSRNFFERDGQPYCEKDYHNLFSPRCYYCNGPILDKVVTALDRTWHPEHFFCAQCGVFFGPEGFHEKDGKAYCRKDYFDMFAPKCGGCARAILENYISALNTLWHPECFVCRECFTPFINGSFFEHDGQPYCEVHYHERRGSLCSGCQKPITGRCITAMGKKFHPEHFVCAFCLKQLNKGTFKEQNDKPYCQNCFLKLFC

Results are given in words; binding and its absence hold for the method and conditions named. Binding seen in cells or lysates may run through a third protein. Some results given as binding are weak or reduced against the parent protein; the word gives no strength.

Consider “FLAG-tagged chicken paxillin with three Y to F substitutions at Y31, Y118 and Y182 (from UniProt P49024 1-559)”, for which the binding entry was “binds”. As to “FLAG-tagged wild-type chicken paxillin (from UniProt P49024 1-559)”, the binding result was “binds”.
